The values below are quoted from earlier work in patent US12233147B2, “Method for treating keratin material” (Henkel AG & Co. KGaA, priority 2019, dated 2025).

The structures appear in SMILES notation.

For the data set the following is noted: 25° C.

Turning to `CCN(Cc1cccc(S(=O)(=O)[O-])c1)c1ccc(C(=C2C=CC(=[N+](CC)Cc3cccc(S(=O)(=O)[O-])c3)C=C2)c2ccccc2S(=O)(=O)[O-])cc1.[Na+].[Na+]` [Acid Blue 9], the solubility in water entry is recorded as “more than 20 % by weight”.
